According to publication PMC5701377:
These are yes or no findings as the source states them, for the method shown. In cells and extracts the contact can be indirect. Some binding calls cover weakened binding; strength is not graded here.

By UniProt entry, the sequences of proteins in these tests, tags left out.
UniProt P01106: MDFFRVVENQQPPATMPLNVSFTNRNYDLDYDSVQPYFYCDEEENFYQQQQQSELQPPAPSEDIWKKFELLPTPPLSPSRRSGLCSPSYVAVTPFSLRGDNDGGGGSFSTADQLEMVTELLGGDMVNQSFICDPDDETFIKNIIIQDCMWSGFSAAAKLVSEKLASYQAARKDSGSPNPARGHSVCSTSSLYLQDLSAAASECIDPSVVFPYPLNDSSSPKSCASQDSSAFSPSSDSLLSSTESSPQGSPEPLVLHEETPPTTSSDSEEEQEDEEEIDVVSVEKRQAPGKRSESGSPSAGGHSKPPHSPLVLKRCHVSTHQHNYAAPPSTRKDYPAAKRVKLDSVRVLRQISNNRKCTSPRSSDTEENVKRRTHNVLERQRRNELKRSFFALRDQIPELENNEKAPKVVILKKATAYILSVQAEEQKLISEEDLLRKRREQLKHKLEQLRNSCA

Target: T1, inhibitor of differentiation and DNA binding-1 (ID1) (UniProt P41134)
T1 sequence: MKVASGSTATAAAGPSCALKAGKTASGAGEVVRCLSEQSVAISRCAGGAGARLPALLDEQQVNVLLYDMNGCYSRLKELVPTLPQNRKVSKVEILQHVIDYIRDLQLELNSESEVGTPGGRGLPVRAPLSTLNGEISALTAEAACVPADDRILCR
Assay: co-IP; 5 x 10^5 cells lysed in 100 mM TRIS/HCl pH 7.5, 150 mM NaCl, 1 mM MgCl2, 0.25% NP-40; precleared with rabbit serum and Agarose A/G-protein beads; immunoprecipitated with ID1 antibody (1:500) overnight at 4 °C; immunoblotted for c-MYC; normal mouse IgG as control antibody

- binding: binds
Substance: c-MYC (from UniProt P01106 1-454)
